Our source for the binding values is publication PMC9588774.

Amino acid sequences for entries named in this document (tags omitted). A change or cut given only in a name is not applied to a line headed by its entry. Residues count along the entry.
UniProt P25445, residues 59-335: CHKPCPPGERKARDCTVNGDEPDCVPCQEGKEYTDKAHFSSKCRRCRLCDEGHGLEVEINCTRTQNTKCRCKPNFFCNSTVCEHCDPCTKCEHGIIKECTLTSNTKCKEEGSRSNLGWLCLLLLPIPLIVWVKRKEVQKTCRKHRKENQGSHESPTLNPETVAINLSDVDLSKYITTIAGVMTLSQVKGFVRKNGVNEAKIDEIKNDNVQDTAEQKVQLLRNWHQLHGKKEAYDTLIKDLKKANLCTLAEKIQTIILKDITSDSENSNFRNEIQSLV
UniProt Q13158: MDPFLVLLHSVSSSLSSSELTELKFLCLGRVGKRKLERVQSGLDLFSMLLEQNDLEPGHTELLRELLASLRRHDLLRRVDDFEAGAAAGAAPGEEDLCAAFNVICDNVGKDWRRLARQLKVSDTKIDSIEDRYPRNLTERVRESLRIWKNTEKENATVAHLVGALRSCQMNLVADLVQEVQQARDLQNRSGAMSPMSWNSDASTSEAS
UniProt Q14790: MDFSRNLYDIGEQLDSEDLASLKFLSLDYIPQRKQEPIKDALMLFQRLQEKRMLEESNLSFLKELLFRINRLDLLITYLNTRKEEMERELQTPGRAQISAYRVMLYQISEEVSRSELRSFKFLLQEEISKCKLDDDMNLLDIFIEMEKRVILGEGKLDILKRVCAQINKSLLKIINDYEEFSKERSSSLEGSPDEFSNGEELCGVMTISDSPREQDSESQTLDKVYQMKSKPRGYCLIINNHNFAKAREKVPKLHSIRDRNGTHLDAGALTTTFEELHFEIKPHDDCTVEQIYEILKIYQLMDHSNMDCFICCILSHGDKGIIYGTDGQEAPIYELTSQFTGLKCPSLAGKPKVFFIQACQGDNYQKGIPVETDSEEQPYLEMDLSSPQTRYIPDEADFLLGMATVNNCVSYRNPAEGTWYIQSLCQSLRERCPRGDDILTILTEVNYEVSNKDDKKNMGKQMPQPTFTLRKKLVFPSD

Results are given in words; binding and its absence hold for the method and conditions named. Binding seen in cells or lysates may run through a third protein. Some results given as binding are weak or reduced against the parent protein; the word gives no strength.

The target of this assay is N-terminally truncated CD95 receptor (CD95-Δ58) expressed in CEM-IRC cells (UniProt P25445). The experiment in a line: co-IP; CEM-IRC clones treated with 100 ng/ml IgCD95L for the indicated times at 37 °C, lysed in HEPES-Triton X-100 buffer; CD95 DISC immunoprecipitated with APO1-3 and protein A-Sepharose; FADD and caspase-8 by immunoblot. On the technique in general: A western blot detects proteins with antibodies after separation by electrophoresis.

Take “Fas-associated death domain (FADD) protein (from UniProt Q13158 1-208)”: the binding entry is reported as “binds”.
Consider “caspase-8 (from UniProt Q14790 1-479) (enzyme)”, for which the binding result is “binds”.
